Source: PMC12669767
Results are given in words; binding and its absence hold for the method and conditions named. Binding seen in cells or lysates may run through a third protein. Here binding means that the protein was enriched with, or labelled near, the bait; the list need not be complete.

Chains of the proteins cited; added tags and fusions are not shown.
UniProt Q9H3M7: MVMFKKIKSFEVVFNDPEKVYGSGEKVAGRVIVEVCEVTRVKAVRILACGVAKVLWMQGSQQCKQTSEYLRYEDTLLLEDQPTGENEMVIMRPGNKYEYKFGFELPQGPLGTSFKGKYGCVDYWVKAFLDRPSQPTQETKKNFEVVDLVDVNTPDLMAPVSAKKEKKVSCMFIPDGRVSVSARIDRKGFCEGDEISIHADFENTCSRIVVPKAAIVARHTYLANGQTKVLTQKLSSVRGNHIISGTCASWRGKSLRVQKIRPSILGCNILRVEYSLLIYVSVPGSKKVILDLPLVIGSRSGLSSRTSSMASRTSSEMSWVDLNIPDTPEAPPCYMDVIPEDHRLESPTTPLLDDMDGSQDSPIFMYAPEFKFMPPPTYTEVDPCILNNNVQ
UniProt Q76N89: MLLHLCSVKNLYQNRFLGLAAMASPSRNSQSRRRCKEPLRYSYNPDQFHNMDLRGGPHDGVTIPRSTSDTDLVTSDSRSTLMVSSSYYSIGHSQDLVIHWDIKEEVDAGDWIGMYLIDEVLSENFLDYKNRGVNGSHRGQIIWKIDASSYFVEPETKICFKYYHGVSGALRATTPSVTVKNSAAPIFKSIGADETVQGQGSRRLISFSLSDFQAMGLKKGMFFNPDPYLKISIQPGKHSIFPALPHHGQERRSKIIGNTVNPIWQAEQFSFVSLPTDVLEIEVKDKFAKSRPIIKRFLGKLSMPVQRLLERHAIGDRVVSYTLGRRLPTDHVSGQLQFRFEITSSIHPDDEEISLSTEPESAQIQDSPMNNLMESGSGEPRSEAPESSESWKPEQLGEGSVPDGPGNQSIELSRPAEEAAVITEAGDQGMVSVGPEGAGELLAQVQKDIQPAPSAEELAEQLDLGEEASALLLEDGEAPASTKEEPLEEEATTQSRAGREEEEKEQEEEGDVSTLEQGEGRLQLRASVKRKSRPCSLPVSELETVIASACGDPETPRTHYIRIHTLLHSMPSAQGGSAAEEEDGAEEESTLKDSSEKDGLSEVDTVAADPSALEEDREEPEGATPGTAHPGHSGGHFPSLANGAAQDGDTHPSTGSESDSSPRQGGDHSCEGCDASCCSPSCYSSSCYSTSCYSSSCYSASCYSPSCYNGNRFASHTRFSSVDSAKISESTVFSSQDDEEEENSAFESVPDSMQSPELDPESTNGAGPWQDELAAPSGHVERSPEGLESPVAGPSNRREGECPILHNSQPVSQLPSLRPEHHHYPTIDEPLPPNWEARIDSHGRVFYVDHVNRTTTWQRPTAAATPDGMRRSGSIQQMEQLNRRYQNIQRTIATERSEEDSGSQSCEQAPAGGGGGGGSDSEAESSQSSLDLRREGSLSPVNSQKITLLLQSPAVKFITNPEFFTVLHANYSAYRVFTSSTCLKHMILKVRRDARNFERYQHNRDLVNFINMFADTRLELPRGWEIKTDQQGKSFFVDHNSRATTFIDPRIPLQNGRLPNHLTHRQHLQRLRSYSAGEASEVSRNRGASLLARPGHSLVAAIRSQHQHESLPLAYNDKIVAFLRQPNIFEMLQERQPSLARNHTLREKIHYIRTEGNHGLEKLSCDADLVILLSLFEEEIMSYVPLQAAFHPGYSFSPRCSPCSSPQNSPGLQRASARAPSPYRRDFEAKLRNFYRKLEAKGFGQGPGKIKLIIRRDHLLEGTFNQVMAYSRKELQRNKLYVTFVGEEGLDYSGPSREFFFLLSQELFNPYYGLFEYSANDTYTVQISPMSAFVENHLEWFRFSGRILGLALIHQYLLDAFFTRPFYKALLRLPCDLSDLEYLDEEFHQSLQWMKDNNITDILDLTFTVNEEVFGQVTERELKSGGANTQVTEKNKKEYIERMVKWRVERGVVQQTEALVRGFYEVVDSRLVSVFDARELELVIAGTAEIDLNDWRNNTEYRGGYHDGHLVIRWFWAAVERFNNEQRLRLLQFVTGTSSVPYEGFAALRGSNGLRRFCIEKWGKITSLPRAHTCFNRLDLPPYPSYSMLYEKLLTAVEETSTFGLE
UniProt Q9P2P5: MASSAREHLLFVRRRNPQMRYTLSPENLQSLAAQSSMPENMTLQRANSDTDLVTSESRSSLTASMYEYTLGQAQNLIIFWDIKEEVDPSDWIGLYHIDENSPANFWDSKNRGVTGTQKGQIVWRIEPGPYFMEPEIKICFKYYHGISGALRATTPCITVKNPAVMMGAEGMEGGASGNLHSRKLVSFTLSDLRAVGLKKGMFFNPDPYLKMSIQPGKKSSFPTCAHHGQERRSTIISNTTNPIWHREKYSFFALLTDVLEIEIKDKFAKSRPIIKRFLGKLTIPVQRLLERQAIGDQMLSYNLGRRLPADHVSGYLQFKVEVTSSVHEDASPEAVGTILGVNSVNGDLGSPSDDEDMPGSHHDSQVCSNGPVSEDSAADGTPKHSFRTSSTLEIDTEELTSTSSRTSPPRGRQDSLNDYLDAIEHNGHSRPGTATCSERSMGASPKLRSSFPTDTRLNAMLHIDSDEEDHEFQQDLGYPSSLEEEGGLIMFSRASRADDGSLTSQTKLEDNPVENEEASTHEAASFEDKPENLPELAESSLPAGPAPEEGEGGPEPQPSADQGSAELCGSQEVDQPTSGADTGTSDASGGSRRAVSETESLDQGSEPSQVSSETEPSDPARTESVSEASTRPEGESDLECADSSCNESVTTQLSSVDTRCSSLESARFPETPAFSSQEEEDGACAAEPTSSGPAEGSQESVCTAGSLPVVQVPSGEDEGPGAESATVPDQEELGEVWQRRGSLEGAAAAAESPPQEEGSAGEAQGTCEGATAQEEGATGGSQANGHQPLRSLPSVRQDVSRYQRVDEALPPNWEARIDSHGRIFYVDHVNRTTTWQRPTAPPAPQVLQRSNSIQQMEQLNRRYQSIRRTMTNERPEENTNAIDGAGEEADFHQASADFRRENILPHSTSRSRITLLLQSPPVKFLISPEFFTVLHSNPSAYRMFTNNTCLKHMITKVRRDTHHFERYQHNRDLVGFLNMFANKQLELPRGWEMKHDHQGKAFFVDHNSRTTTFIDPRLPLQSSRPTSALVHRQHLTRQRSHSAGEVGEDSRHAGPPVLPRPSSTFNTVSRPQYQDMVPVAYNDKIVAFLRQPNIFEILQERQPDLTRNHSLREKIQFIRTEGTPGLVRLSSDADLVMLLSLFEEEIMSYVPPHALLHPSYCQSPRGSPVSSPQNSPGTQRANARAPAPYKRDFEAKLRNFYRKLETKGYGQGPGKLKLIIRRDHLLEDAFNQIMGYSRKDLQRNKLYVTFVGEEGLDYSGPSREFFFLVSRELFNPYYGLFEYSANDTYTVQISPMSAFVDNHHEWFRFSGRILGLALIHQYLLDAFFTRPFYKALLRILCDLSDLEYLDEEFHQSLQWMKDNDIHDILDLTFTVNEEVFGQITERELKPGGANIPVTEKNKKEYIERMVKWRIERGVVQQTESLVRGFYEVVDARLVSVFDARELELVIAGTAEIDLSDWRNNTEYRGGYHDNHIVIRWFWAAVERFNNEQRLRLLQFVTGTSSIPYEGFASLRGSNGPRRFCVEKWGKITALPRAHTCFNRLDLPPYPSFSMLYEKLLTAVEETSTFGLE
UniProt P46934: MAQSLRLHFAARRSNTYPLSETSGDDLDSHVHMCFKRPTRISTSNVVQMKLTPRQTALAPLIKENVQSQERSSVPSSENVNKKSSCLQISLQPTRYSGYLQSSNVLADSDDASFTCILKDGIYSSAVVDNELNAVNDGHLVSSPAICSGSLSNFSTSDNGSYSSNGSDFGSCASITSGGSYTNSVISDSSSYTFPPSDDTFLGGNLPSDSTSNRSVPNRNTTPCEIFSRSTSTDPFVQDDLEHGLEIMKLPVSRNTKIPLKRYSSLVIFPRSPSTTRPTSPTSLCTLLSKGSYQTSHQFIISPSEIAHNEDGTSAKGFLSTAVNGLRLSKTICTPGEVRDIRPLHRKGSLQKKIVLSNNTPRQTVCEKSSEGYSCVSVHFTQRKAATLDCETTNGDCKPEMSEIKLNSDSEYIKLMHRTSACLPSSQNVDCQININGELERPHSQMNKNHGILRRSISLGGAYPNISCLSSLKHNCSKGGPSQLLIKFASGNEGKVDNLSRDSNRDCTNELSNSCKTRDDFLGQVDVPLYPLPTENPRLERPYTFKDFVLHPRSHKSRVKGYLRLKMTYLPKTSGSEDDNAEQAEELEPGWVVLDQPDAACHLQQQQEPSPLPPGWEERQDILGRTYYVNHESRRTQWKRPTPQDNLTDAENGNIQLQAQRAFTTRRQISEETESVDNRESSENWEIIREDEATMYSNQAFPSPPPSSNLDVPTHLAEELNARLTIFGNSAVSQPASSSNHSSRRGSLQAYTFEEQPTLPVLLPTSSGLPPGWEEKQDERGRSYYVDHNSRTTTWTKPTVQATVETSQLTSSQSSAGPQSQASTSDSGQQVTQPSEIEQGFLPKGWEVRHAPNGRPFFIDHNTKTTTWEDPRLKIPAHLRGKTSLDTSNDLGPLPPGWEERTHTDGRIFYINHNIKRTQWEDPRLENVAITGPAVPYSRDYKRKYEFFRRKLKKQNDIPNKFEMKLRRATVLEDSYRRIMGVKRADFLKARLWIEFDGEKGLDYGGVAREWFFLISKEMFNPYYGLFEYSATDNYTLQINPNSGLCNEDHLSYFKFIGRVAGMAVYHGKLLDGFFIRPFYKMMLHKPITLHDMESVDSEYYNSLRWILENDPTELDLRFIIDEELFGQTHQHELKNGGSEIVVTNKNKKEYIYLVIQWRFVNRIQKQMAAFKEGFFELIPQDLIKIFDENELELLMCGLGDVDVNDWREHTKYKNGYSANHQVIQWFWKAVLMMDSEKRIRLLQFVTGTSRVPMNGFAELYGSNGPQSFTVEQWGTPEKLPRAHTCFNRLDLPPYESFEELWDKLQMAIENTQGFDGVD

Molecular target: ALFA-tagged TXNIP (thioredoxin interacting protein), expressed in HEK293T (human) (UniProt Q9H3M7)
Test: affinity purification with mass spectrometry; label-free interactome: ALFA-TXNIP or its PPxY mutants precipitated from transfected HEK293T lysate on ALFA Selector ST magnetic beads, 3 h at 4 °C; 30 mM Tris pH 7.5, 150 mM NaCl, 0.5% octyl-glucopyranoside; abundances normalised to empty beads; n = 3

Row | binding | Substance
1 | binds | HECW1, endogenous in HEK293T (from UniProt Q76N89 1-1606) (enzyme)
2 | binds | HECW2, endogenous in HEK293T (from UniProt Q9P2P5 1-1572) (enzyme)
3 | binds | NEDD4, endogenous in HEK293T (from UniProt P46934 1-1319) (enzyme)
